Patent US6071944A, “Method of treatment of pigmented cancer cells utilizing photodynamic therapy” (Bowling Green State University, priority 1997, dated 2000)
At least one structure is not confirmed: it was looked up by name or label, or the drawing left a doubt.

Legend:
[1] = after injection; cited from earlier work
[2] = Molar extinction coefficient; format: physicochemical; conditions: in THF solution at 774 nm

SMILES: CCCCCCCCCCCCCCCCCC[Si]([O-])(CC(C)C)CC(C)C.CCCCCCCCCCCCCCCCCC[Si]([O-])(CC(C)C)CC(C)C.[Si+4].c1ccc2cc3c(cc2c1)-c1nc2nc(nc4[n-]c(nc5[n-]c(nc-3n1)c1cc3ccccc3cc51)c1cc3ccccc3cc41)-c1cc3ccccc3cc1-2 [isoBO-SiNc, Bis(di-isobutyloctadecylsiloxy)-2,3-naphthalocyanato silicon]
- time intervals of maximum accumulation in a variety of transplanted tumors [1]: 24 h and 48 h
- molar extinction coefficient [2]: 560000 M⁻¹ cm⁻¹
